PubChem BioAssay AID1671190 (National Center for Advancing Translational Sciences (NCATS), 2021)
About 6,100 (1.1%) of roughly 580,000 compounds were called active. Inconclusive results, whose numbers are uncertain, are shown with a selection of clear calls. Calls come from the whole dose curve; as a rule, active = well fitted inhibition curve with a large enough effect; inconclusive = small, poorly fitted or top-dose-only effect, or another doubt; inactive = no such curve, though single readings can be large or run the other way. Potencies of inconclusive entries are doubtful fits and often do not repeat.

Sequences of proteins named here, by UniProt entry; tags and fusion partners are left off. A change or cut given only in a name is not applied to a line headed by its entry.
UniProt P18054: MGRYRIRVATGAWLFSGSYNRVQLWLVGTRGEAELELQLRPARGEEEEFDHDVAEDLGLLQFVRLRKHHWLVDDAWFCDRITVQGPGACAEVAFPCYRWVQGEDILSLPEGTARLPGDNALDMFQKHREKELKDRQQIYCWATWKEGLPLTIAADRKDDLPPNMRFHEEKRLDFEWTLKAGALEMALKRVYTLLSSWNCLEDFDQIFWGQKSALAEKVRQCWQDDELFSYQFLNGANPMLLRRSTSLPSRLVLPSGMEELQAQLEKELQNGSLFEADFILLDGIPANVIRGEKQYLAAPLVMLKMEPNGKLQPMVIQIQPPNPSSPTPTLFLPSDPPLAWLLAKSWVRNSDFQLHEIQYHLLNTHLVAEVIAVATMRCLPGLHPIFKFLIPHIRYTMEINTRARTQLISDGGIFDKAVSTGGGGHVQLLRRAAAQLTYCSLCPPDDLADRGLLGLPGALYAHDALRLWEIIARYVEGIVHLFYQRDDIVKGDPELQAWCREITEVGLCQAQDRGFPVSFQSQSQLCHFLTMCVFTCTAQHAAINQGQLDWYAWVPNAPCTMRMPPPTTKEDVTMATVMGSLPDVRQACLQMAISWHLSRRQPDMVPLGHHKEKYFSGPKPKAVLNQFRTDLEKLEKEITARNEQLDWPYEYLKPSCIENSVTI

Target: Polyunsaturated fatty acid lipoxygenase ALOX12 (Homo sapiens) (UniProt P18054)
Assay: Primary qHTS assay for inhibitors of human arachidonate 12S-lipoxygenase (ALOX12): Round 2
Details: purified 12hLO, xylenol orange hydroperoxide absorbance; series mostly up to 108 µM
In short: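 Purified human 12hLO (150 nM final) in 25 mM Hepes, 0.01% Triton X-100, pH 7.0 was preincubated 15 min at room temperature with compound. Then 40 uM arachidonic acid was added, 30 min. Hydroperoxide was read by Fe-XO absorbance ratio 573/405 nm.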
Potency is the fitted concentration of half-maximal effect.

Structure (SMILES)	Potency
Cc1ccc(Cl)c(OCCCN(C)Cc2ccccc2)c1	inconclusive: 11.2 µM [inhibitor, full curve, poor fit]
COc1ccccc1CNC(=O)C1CCCN(C(=O)c2cccnc2)CCC(=O)NCC1 (stereo not drawn)	inactive
CCN(CC)S(=O)(=O)c1ccc(C(=O)N2CCN(c3ncccn3)CC2)cc1	inconclusive: 100 µM [inhibitor, partial curve, poor fit]
CC1=NN(C(=O)c2ccc(Cn3nc(C)c(Br)c3C)cc2)C(O)(C(F)(F)F)C1 (stereo not drawn)	inactive
COc1ccc(OCC(=O)N2c3ccccc3CC2C)c([N+](=O)[O-])c1 (stereo not drawn)	inconclusive: 56.2 µM [inhibitor, full curve, poor fit]
c1ccc(CSC2=NCCCN2)cc1	inconclusive: 35.5 µM [inhibitor, partial curve, poor fit]
CCOC(=O)CSc1ncnc2c1c(-c1ccccc1)cn2-c1ccc(OC)cc1	inactive
CCOCCCNC(=S)NC1CC1	inconclusive: 44.7 µM [inhibitor, partial curve, poor fit]
CC(C)C(NC(=O)c1nn(C)c(=O)c2ccccc12)c1ccc2c(c1)OCCCO2 (stereo not drawn)	inconclusive: 2.51 µM [inhibitor, full curve, poor fit]
Nc1cc(C(=O)OCC(=O)N2CCN(C(=O)COC(=O)c3ccc(Cl)c(N)c3)CC2)ccc1Cl	inconclusive: 112 µM [inhibitor, single point]
Cc1ccc(OCCC(=O)Nc2ccc3c(c2)OCCCO3)cc1	inconclusive: 112 µM [inhibitor, single point]
Cn1nc(C(=O)OCC(=O)Nc2ccc(OC(F)F)cc2)c2ccccc2c1=O	inactive
CCc1cc2c(=O)c(-c3ccc4c(c3)OCCO4)coc2c(CN2CCCCC2C)c1O (stereo not drawn)	inactive
Cc1nn(CC(=O)Nc2ccc(N3CCCCC3)cc2)c(=O)c2ccccc12	inactive
CCC(=O)Nc1c(-c2cc(=O)oc3c(C)cc(C)cc23)oc2ccccc12	inconclusive: 35.5 µM [inhibitor, partial curve, poor fit]
O=C(Nc1ccc(F)cc1Cl)c1ccc2c(=O)n3c(nc2c1)CCC3	inconclusive: 56.2 µM [inhibitor, partial curve, poor fit]
FC(F)(F)c1cnc(-n2cc[nH]c2=S)c(Cl)c1	inconclusive: 35.5 µM [inhibitor, single point]
Cc1ccc(S(=O)(=O)N2CCN(C(=O)c3ccc4ccccc4n3)CC2)c(C)c1	inconclusive: 100 µM [inhibitor, partial curve, poor fit]
COc1ccc(/C=N/NC(=S)Nc2cc(S(=O)(=O)N3CCOCC3)ccc2N2CCOCC2)cc1O	inconclusive: 31.6 µM [inhibitor, full curve, poor fit]
COc1cc(-c2noc(CCC(=O)Nc3cccnc3)n2)cc(OC)c1OC	inactive
Cn1c(=O)c2ccccc2n2c(=S)[nH]nc12	inconclusive: 44.7 µM [inhibitor, partial curve, poor fit]
O=C(COc1ccc(S(=O)(=O)NC2CCCCC2)cc1Cl)N1CCN(c2ccccc2)CC1	inconclusive: 5.62 µM [inhibitor, full curve, poor fit]
COc1ccc(CCNC(=O)CCCn2c(=O)c3cccn3c3ccc(F)cc32)cc1OC	inactive

Structure (SMILES)	Potency
O=C(Cn1nc2c(cc1=O)CCCC2)Nc1ccc(Br)cc1F	inconclusive: 31.6 µM [inhibitor, partial curve, poor fit]
CCCC(=O)N1CCC1(C)C(=O)NS(=O)(=O)c1cccc(C)c1 (stereo not drawn)	inconclusive: 31.6 µM [inhibitor, partial curve, poor fit]
CC(=O)c1c(C)[nH]c(C(=O)C(C)OC(=O)c2ccc(F)cc2F)c1C (stereo not drawn)	inconclusive: 2.51 µM [inhibitor, full curve, poor fit]
CCOc1ccc(OCC)c(N)c1	inconclusive: 50.1 µM [inhibitor, partial curve, poor fit]
COc1ccc([C@@H]2C[C@H](c3ccccc3)Oc3cc(C)cc(C)c32)cc1	active: 1.12 µM
CSc1nc(N2CCN(c3ccccc3Cl)CC2)c2ccccc2n1	inconclusive: 79.4 µM [inhibitor, partial curve, poor fit]
O=C(O)CSCc1ccc(Cl)c(Cl)c1	inconclusive: 31.6 µM [inhibitor, partial curve, poor fit]
CCOC(=O)c1c(C)c(C(=O)NCc2cccs2)c(C)n1C	inactive
O=C1C(=O)N(Cc2ccncc2)C(c2cccc(O)c2)/C1=C(\O)c1ccc2c(c1)OCCO2 (stereo not drawn)	inconclusive: 5.62 µM [inhibitor, full curve]
CC(C)C[C@@H](CNCC(=O)[C@H](Cc1ccccc1)NC(=O)c1[nH]cnc1C(=O)N[C@H](CN)CC(C)C)NC(=O)c1nc[nH]c1C(=O)N[C@@H](CC(=O)O)C(=O)O	inconclusive: 100 µM [inhibitor, single point]
O=C1NC(=S)NC1=Cc1ccc(Cl)cc1Cl	inactive
C=CCn1c(N)cc(=O)nc1SCC(=O)Nc1ccc2ccccc2c1	inconclusive: 6.31 µM [inhibitor, full curve, poor fit]
O=C(NC[C@H]1O[C@H](Cc2cc(CN3CCOCC3)on2)CC[C@@H]1O)N1CCOCC1	inactive
COCC(=O)N1CCC2(CCCN(c3ccccc3)C2)CC1	inconclusive: 31.6 µM [inhibitor, single point]
Cc1ccc(Nc2ccc([N+](=O)[O-])c3cnccc23)cc1	inconclusive: 141 µM [inhibitor, single point]
O=C(CC1(O)C(=O)Nc2cc(Cl)cc(Cl)c21)c1ccncc1 (stereo not drawn)	inactive
Cc1ccc(-c2cc(C(=O)Nc3nncs3)c3ccccc3n2)cc1	inactive
CCOc1ccccc1Nc1ccc2cc(S(=O)(=O)N3CCCCC3)ccc2n1	inconclusive: 50.1 µM [inhibitor, partial curve, poor fit]
Cc1ccc(C(=O)OCC(=O)NC(=O)Cc2ccccc2)c(O)c1	inconclusive: 39.8 µM [inhibitor, partial curve, poor fit]
CCc1sc(C(=O)Nc2sc(C)c(C)c2C#N)cc1Br	inconclusive: 35.5 µM [inhibitor, partial curve, poor fit]
Cc1ccc(N=C2NC(=O)S/C2=C\c2ccco2)cc1	inconclusive: 44.7 µM [inhibitor, partial curve, poor fit]
CCN1CCN(c2c(Cl)cccc2NC(=O)c2cc3ccccc3o2)CC1	inconclusive: 31.6 µM [inhibitor, partial curve]
COc1ccccc1NC(=O)c1ccc2ccccc2n1	inconclusive: 39.8 µM [inhibitor, partial curve, poor fit]

Structure (SMILES)	Potency
COc1ccc(CCC(=O)NCc2ccc3c(c2)CCN3C(=O)c2cccc(C)c2)cc1	inconclusive: 100 µM [inhibitor, partial curve, poor fit]
Nc1cccnc1Sc1ccc([N+](=O)[O-])cn1	inactive
Cc1c(Cl)cccc1NC(=S)NCC1(N(C)C)CCCCC1	inactive
Cc1ccc2c(CN(C)Cc3ccc(OC(F)F)cc3)cc(=O)oc2c1C	inactive
Cc1ccc2nc(SCC(=O)Nc3oc(C)c4c(C)n[nH]c(=O)c34)[nH]c2c1	inactive
O=C(CSc1nnc(-c2ccccn2)o1)Nc1ccccc1Cl	inactive
CC(C)(C)OC(=O)N1CCC(CC2CC(c3ccccc3)=NO2)(C(=O)O)CC1 (stereo not drawn)	inactive
Cc1nc2ccc(NC(=O)c3ccc(Br)o3)cc2s1	inactive
Oc1cccc(NC(=S)N=Nc2c(O)[nH]c3ccccc23)c1	inconclusive: 79.4 µM [inhibitor, partial curve, poor fit]
COc1ccc(C2CCCN2C(=S)Nc2ccc(C)cc2C)cc1OC (stereo not drawn)	inactive
CCOc1ccc(NC(=O)CN(C)C(=O)c2ccc(N3CCCCCC3)c([N+](=O)[O-])c2)cc1OCC	inactive
O=C(/C=C/c1ccco1)Nc1ccc(SC2CCCC2)cc1	inconclusive: 35.5 µM [inhibitor, partial curve, poor fit]
Cc1ccc(C(=O)N/N=C2\SCC(=O)N2c2cc(C)ccc2C)cc1	inactive
COC(=O)CCOc1ccc(S(=O)(=O)Nc2cccc(Cl)c2C)cc1	inactive
CC(=O)N1C(=O)C2(C(C#N)=C(N)Oc3n[nH]c(-c4ccccn4)c32)c2ccccc21 (stereo not drawn)	inconclusive: 44.7 µM [inhibitor, partial curve, poor fit]
COc1cc(OC)c(OC)cc1CN1CCN(S(=O)(=O)c2ccc(F)cc2)CC1	inconclusive: 0.562 µM [inhibitor, full curve, poor fit]
CC1(OC(=O)C2CCCC2)C(=O)C=C2C=C(c3ccsc3)N(CC3CC3)C=C2C1=O (stereo not drawn)	inconclusive: 63.1 µM [inhibitor, partial curve, poor fit]
Cc1cc(C)c(NC(=O)COC(=O)c2cccc(C)c2O)c(Cl)c1	inconclusive: 3.55 µM [inhibitor, full curve]
CCC1CCc2c(sc(NC(=O)C(C)C)c2C#N)C1 (stereo not drawn)	inconclusive: 50.1 µM [inhibitor, full curve, poor fit]
CCc1ccccc1Nc1nc2ccccc2n1C	inactive
CCOC(=O)N1C2=NC(C(=O)OC)=C(C(=O)OC)[C@@H]3N(C)c4ccccc4[C@]23C[C@H]1C(=O)OC	inconclusive: 50.1 µM [inhibitor, partial curve, poor fit]
Cc1ccc(S(=O)(=O)N2CCN(CCNC(=O)COc3ccccc3)CC2)cc1	inconclusive: 28.2 µM [inhibitor, partial curve]

As entered above.
Entry for COc1ccc(OCC(=O)N2c3ccccc3CC2C)c([N+](=O)[O-])c1 (stereo not drawn) under Potency: inconclusive: 56.2 µM [inhibitor, full curve, poor fit]
Entry for COc1ccc(CCC(=O)NCc2ccc3c(c2)CCN3C(=O)c2cccc(C)c2)cc1 under Potency: inconclusive: 100 µM [inhibitor, partial curve, poor fit]
Entry for Cc1c(Cl)cccc1NC(=S)NCC1(N(C)C)CCCCC1 under Potency: inactive
Entry for CC1(OC(=O)C2CCCC2)C(=O)C=C2C=C(c3ccsc3)N(CC3CC3)C=C2C1=O (stereo not drawn) under Potency: inconclusive: 63.1 µM [inhibitor, partial curve, poor fit]
Entry for CCC(=O)Nc1c(-c2cc(=O)oc3c(C)cc(C)cc23)oc2ccccc12 under Potency: inconclusive: 35.5 µM [inhibitor, partial curve, poor fit]
